According to paper PMC6066355, “Probing the binding site of novel selective positive allosteric modulators at the M1 muscarinic acetylcholine receptor” (Biochemical Pharmacology, 2018):
Changes are numbered by the printed parent chain.

What was measured:
Experiment in all cases: Whole cell [3H]NMS binding inhibition/interaction assay (ACh ± PAM), FlpIn CHO cells
[1] = biological target: T1, W400^7.35A M1 mAChR (Homo sapiens, UniProt P11229, W400A); details: affinity and cooperativity could not be estimated
T1 construct: expressed in transfected cells
T1 sequence (P11229 1-460 W400A): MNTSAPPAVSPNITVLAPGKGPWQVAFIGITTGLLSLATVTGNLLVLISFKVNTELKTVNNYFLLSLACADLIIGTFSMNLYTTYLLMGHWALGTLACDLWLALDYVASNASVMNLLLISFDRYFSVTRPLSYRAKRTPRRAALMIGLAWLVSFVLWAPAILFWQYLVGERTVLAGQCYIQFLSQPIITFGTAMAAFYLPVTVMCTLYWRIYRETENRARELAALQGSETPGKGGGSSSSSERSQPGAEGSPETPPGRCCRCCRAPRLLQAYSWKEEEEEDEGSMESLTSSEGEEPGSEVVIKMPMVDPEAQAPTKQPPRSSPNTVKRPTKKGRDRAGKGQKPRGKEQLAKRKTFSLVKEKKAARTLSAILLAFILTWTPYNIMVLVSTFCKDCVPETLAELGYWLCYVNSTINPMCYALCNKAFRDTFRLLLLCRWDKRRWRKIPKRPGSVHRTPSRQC
Experimental: (§1) Saturation binding assays were performed to estimate the expression levels and equilibrium dissociation constant of the radioligand (KD). FlpIn CHO cells stably expressing the WT or mutant c-myc hM1 mAChRs were plated at the density of 25,000 per well of 96-well white clear bottom Isoplates (PerkinElmer Life Sciences, Boston, MA), and grown overnight at 37 °C. […] Atropine at the final concentration of 100 µM was used to determine non-specific binding. The assays were terminated by rapid removal of the radioligand, and two washes with 100 µl/well ice-cold 0.9% NaCl buffer.
(§2) All data were analysed using GraphPad Prism 7 (San Diego, CA). […] Binding interaction studies between orthosteric agonists and allosteric modulators were fitted to the following allosteric ternary complex model (Eq. (1)):(1) Y=BmaxD/D+KDKB/α^′B+KB1+I/KI+B/KB+αIB/KIKB where Bmax is the total number of receptors, [D], [B] and [I] denote the concentrations of radioligand, allosteric ligand, and orthosteric ligand, respectively, and KD, KB and KI represent their respective equilibrium dissociation constants. α′ and α are the cooperativity factors between the allosteric ligand and radioligand or orthosteric ligand, respectively.

[2] = biological target: T2, Y179^ECL2A M1 mAChR (Homo sapiens, UniProt P11229, Y179A); details: affinity and cooperativity could not be estimated
T2 construct: expressed in transfected cells
T2 sequence (P11229 1-460 Y179A): T1 sequence (P11229 1-460 W400A) with Y179A, A400W
Experimental: as §1, §2

[3] = biological target: T3, Y82^2.61A M1 mAChR (Homo sapiens, UniProt P11229, Y82A)
T3 construct: expressed in transfected cells
T3 sequence (P11229 1-460 Y82A): T1 sequence (P11229 1-460 W400A) with Y82A, A400W
Experimental: as §1, §2

[4] = biological target: T4, WT M1 mAChR (Homo sapiens, UniProt P11229)
T4 construct: expressed in transfected cells
T4 sequence (P11229 1-460): T1 sequence (P11229 1-460 W400A) with A400W
Experimental: as §1, §2

[5] = biological target: T5, F77^2.56I M1 mAChR (Homo sapiens, UniProt P11229, F77I)
T5 construct: expressed in transfected cells
T5 sequence (P11229 1-460 F77I): T1 sequence (P11229 1-460 W400A) with F77I, A400W
Experimental: as §1, §2

[6] = constrained to −2 where preferred model by F-test

For `COc1ccc(Cn2cc(C(=O)O)c(=O)c3ccccc32)cc1` [BQCA, 1-(4-methoxybenzyl)-4-oxo-1,4-dihydroquinoline-3-carboxylic acid], the “Modulatory effect on ACh inhibition of [3H]NMS binding” value [1] was “completely abolished”, the “Modulatory effect on ACh inhibition of [3H]NMS binding” value [2] was “completely abolished” and the “Logα ACh (logarithm of binding cooperativity between ACh and modulator)” value (“Logα ACh” for short) [3] was 1.58 ± 0.11. The “Logα NMS (logarithm of binding cooperativity between [3H]NMS and modulator)” value (shortened to “Logα NMS”) [3] was −0.84 ± 0.06, the “α ACh (binding cooperativity with ACh, antilog in brackets)” value [3] was 30.2 and the “Logα ACh” value [4] was 1.32 ± 0.11. The “Logα NMS” value [4, 6] was −1.07 ± 0.10, the “Logα ACh” value [5] was 1.31 ± 0.12 and the “α ACh (binding cooperativity with ACh, antilog in brackets)” value [5] was 13.5. For the same compound, the “α NMS (binding cooperativity with [3H]NMS, antilog in brackets)” value [5] was 0.08 and the “Logα NMS” value [5, 6] was −0.90 ± 0.07.
